# Measured values reported in patent publication US9475839B2, “Peptide-based inhibitor of interleukin-10 or interferon-gamma signaling” (THE UNITED STATES OF AMERICA, AS REPRESENTED BY THE …, priority 2010, dated 2016).
# Entries after “also recorded” stand apart in the source; their conditions may differ. At least one structure is not confirmed: it was looked up by name or label, or the drawing left a doubt. Positions of bridges follow the written chain, without caps; N, C: chain ends. Non-standard residues stand in square brackets, D forms with d. Residues, ends and D or L forms follow the SMILES beside them. Chains are numbered I, II in the order given. ξ: configuration not given here. PEG4 = NCCOCCOCCOCCOCCC(=O)O; Nle = CCCC[C@H](N)C(=O)O; Aib = CC(C)(N)C(=O)O; ξK = NCCCCC(N)C(=O)O
# Experiments:
# [1] = test system: mouse mast MC/9 cells; experiment: Inhibition of IL10-dependent growth of MC/9 cells, MTT assay, 48 hours; assay type: cell-based; details: FIG. 2; result in words
# [2] = test system: MDA-MB-231 breast cancer cells; experiment: Inhibition of IFN-gamma-dependent growth of MDA-MB-231 cells, MTT assay, 48 hours; assay type: cell-based; details: FIG. 2, 48 hours exposure, result in words
smiles,measurement,setting,value
CCCC[C@H](NC(=O)[C@H](Cc1ccc(O)cc1)NC(=O)[C@H](C)NC(=O)[C@H](CCC(=O)O)NC(=O)[C@@H](NC(=O)[C@H](Cc1ccc(O)cc1)NC(=O)[C@H](CC(N)=O)NC(=O)[C@@H](NC(=O)[C@H](Cc1ccccc1)NC(=O)[C@@H](NC(=O)[C@H](CC(=O)O)NC(=O)[C@H](Cc1ccccc1)NC(=O)[C@H](CCC(=O)O)NC(=O)[C@H](CO)NC(=O)C(C)(C)NC(C)=O)[C@@H](C)CC)[C@@H](C)CC)[C@@H](C)CC)C(=O)NCCOCCOCCOCCOCCC(=O)NCCCCC(NC(=O)CCOCCOCCOCCOCCNC(=O)[C@H](CCCC)NC(=O)[C@H](Cc1ccc(O)cc1)NC(=O)[C@H](C)NC(=O)[C@H](CCC(=O)O)NC(=O)[C@@H](NC(=O)[C@H](Cc1ccc(O)cc1)NC(=O)[C@H](CC(N)=O)NC(=O)[C@@H](NC(=O)[C@H](Cc1ccccc1)NC(=O)[C@@H](NC(=O)[C@H](CC(=O)O)NC(=O)[C@H](Cc1ccccc1)NC(=O)[C@H](CCC(=O)O)NC(=O)[C@H](CO)NC(=O)C(C)(C)NC(C)=O)[C@@H](C)CC)[C@@H](C)CC)[C@@H](C)CC)C(N)=O (some centres unmarked) [IL10-HF-1] (I: Ac-[Aib]SEFDIFINYIEAY[Nle][PEG4][ξK]-NH2 / II: Ac-[Aib]SEFDIFINYIEAY[Nle][PEG4]; amide I:17-II:C),Inhibition of IL10 dependent growth of mouse monocytes,[1],potently inhibited
same,Effect on IFN-gamma-dependent growth of MDA-MB-231 cells,[2],no effect; also recorded: does not inhibit
